According to US20170247475A1:
These are yes or no findings as the source states them, for the method shown. Some results given as binding are weak or reduced against the parent protein; the word gives no strength.

What was measured:
hAng2 = target: T1, hAng2; assay: competition ELISA, blocking of hAng2 binding to hTie2
T1 sequence: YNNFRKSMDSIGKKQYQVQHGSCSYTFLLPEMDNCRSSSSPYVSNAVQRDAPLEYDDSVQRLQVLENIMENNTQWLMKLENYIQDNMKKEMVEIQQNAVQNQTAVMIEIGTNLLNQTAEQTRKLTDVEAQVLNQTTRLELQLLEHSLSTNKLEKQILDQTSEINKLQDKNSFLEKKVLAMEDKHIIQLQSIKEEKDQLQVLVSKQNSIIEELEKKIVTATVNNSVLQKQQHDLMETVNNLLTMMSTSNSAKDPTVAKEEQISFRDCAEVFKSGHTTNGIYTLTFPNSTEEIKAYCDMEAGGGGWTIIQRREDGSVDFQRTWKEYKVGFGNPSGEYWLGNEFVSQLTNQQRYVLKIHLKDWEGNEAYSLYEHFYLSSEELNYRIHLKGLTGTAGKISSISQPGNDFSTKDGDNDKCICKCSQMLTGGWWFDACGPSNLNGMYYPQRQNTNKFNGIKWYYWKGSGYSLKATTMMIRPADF

mAng2 = target: T2, mAng2; assay: competition ELISA, blocking of mAng2 binding to mTie2
T2 sequence: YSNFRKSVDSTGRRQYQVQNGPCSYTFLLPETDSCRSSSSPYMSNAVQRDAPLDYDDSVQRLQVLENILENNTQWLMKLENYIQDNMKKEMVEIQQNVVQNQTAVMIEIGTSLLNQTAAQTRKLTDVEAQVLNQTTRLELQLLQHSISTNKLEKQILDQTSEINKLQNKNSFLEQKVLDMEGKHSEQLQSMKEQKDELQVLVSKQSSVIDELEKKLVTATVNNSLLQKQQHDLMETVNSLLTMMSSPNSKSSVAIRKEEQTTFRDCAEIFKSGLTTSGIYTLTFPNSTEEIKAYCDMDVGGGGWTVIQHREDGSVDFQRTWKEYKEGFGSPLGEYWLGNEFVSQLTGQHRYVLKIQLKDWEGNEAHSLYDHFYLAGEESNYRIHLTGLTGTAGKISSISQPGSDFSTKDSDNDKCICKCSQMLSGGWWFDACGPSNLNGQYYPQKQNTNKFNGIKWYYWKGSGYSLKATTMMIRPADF

B1: ANGBII00003 (VHH)
bivalent VHH: EVQLVESGGGLVQVGDSLRLSCAASGRTFSTYLMVGWFRQAPGKEREFAAGIWSSGDTAYADSVRGRFTISRDNAKNTVYLQMNSLKTEDTAVYYCAGSYDGNYYIPGFYKDWGQGTLVTVSSGGGGSGGGSEVQLVESGGGLVQVGDSLRLSCAASGRTFSTYLMVGWFRQAPGKEREFAAGIWSSGDTAYADSVRGRFTISRDNAKNTVYLQMNSLKTEDTAVYYCAGSYDGNYYIPGFYKDWGQGTLVTVSS
hAng2
  binding: binds
mAng2
  binding: binds
